Measurements from patent US20250206843A1 (NATIONAL INSTITUTE FOR BIOTECHNOLOGY IN THE NEGEV, published 2025).
These are yes or no findings as the source states them, for the method shown. Some binding calls cover weakened binding; strength is not graded here.

The chains behind the UniProt entries cited, without tags or fusion partners. Where a name states a change or a piece, a line headed by the entry shows the natural chain unless it says otherwise.
UniProt P21860: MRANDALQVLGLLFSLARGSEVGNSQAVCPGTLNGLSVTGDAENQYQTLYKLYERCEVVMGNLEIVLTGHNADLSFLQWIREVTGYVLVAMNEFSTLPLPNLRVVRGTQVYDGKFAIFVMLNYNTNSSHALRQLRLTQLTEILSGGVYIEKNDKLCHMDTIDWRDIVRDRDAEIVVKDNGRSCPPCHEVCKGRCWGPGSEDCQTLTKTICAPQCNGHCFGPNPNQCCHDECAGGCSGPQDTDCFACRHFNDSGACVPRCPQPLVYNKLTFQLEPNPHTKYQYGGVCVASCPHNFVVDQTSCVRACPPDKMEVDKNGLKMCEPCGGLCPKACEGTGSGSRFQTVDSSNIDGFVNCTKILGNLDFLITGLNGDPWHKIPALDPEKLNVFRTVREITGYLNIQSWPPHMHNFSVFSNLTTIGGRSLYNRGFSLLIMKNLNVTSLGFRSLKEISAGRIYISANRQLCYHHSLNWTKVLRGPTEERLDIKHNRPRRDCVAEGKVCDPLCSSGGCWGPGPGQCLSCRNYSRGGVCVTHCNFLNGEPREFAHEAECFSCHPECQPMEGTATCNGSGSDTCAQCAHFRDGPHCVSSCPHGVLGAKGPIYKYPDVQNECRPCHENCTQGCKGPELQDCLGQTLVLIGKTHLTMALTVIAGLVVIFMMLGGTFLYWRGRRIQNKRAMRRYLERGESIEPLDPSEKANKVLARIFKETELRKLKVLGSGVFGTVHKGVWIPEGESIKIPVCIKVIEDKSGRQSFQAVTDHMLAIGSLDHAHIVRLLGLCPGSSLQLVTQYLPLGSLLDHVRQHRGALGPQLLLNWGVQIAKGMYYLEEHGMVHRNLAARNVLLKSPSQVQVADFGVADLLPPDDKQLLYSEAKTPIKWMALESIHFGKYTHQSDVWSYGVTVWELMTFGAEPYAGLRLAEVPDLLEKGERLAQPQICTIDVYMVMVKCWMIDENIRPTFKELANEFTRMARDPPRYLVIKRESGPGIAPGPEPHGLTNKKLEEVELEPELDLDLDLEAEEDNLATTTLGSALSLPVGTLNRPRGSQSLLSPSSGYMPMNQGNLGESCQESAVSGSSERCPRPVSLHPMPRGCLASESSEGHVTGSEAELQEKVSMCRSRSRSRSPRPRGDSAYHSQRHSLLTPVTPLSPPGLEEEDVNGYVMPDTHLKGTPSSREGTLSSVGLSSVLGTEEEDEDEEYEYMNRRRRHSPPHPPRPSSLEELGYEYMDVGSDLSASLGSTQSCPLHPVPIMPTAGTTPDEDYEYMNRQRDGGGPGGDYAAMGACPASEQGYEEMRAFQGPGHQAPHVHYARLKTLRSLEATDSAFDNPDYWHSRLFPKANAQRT

Legend:
[1] = molecular target: T1, HER2 and HER3 co-expressed on cells (HER2/3) (human) (UniProt P04626+P21860); assay: flow cytometry on HEK 293 cells expressing HER2 and HER3, anti-VHH-488 detection, signal normalised to the highest signal, n=3
[2] = molecular target: T1, HER2 and HER3 co-expressed on cells (HER2/3) (human); assay: flow cytometry on HEK 293 cells expressing HER2 and HER3, anti-VHH-488 detection
[3] = molecular target: T1, HER2 and HER3 co-expressed on cells (HER2/3) (human); assay: flow cytometry on HEK 293 cells expressing HER2 and HER3, anti-VHH-488 detection, n=3

Measured: binding

B1: Nb46 (VHH)
VHH: QVQLQESGGGSVQAGGSLRLSCVVSGYFYYDHYYVAWFRQAPGKEREGVALINGRDSDTYYADSVKGRFTISQDSAKNTVYLQMNSLKPEDTAIYYCAANPGEAFTVLPPRVFRNWGQGTQVTVSS
notes: also called N46
binds: all assays above
